The record followed here is paper PMC2776001.

Protein sequences, listed by entry. Tags and fused reporters are not part of them. Lines headed by an entry give the natural chain unless they say otherwise; changes in a name come on top.
UniProt Q9HC16: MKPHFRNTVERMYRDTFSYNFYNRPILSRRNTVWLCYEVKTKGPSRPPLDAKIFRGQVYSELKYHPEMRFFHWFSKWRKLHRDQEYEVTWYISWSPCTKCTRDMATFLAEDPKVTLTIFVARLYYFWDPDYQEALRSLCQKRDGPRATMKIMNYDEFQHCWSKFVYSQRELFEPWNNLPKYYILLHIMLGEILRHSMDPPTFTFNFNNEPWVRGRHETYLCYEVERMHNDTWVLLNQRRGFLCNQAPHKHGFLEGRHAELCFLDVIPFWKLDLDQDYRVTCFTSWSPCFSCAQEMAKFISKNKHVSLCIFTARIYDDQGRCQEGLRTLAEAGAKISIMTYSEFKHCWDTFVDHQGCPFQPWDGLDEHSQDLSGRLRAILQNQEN

No constants are given. Whether binding was seen depends on the method and setting. Binding seen in cells or lysates may run through a third protein. Some entries that bind do so weakly or less than the wild type.

What all share (assay): co-IP; HeLa cells co-transfected with 2.5 ug each of untagged and C-terminally Myc-tagged A3G vectors; lysis in 0.5% Triton X-100, 287 mM NaCl, 2.68 mM KCl, 1.47 mM KH2PO4, Na2HPO4, pH 7.2; immunoprecipitation with Myc-specific monoclonal antibody 9E10; blot with A3G-specific Apo-C17
The target in assay [1] is wild type human APOBEC3G carrying a C-terminal Myc epitope tag (human) (UniProt Q9HC16).
The target of assay [2] is Myc-tagged A3G W127A (human) (UniProt Q9HC16).
The target of assay [3] is Myc-tagged A3G Y124A (human) (UniProt Q9HC16).

“untagged A3G Y124A (from UniProt Q9HC16 1-384)”: the binding entry in assay [1] is “binds”.
With “untagged A3G W127A (from UniProt Q9HC16 1-384)”, in assay [1], the binding result is listed as “binds”.
With “untagged human APOBEC3G wild type (from UniProt Q9HC16 1-384)”, the binding entry is “binds weakly” in assay [2] and “binds” in assay [3].
